PubChem BioAssay AID1224830 – NIAID – 2016
Here is an unselected part of about 18,000 reagents. About 2,900 of them (16%) count as active. 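Calls are made per well; low scores hint the gene aids the LPS response, high scores that it dampens it.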 The numbers tell different reagents against one gene apart. Repeated entries: four replicate wells of each siRNA pool.

Aim: 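Regulators of TLR4 signalling towards TNF-alpha in macrophage-like cells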 (primary screen)
Cell system: human THP-1 monocytic leukaemia cells, TNF dual-luciferase reporter clone, PMA-differentiated to macrophage-like cells
Reagents: siRNA pool against human genes, 50 nM
Duration: LPS for 4 h, given about 3 days after siRNA transfection
Challenge: bacterial LPS (TLR4 ligand), 10 ng/ml
Read-out: 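TNF firefly reporter luminescence divided by renilla, normalised to the plate median, then turned into a robust z-score for each replicate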
Scale: TNF reporter robust z-score: higher = stronger TNF reporter response to LPS
Call rule: 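Each well counts as active if its z-score is over 2.8 or under -1.5; controls are left without a call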

no.	gene symbol	reagent no.	TNF reporter robust z-score	call
1	LMNTD1	1	-0.38	inactive
2	LMNTD1	1	-0.23	inactive
3	LMNTD1	1	0	inactive
4	LMNTD1	1	1.59	inactive
5	OR51S1	1	-0.08	inactive
6	OR51S1	1	-0.21	inactive
7	OR51S1	1	0.49	inactive
8	OR51S1	1	0.07	inactive
9	ERBIN	1	-0.07	inactive
10	ERBIN	1	-0.18	inactive
11	ERBIN	1	-0.25	inactive
12	ERBIN	1	0.48	inactive
13	TMEM63C	1	1.05	inactive
14	TMEM63C	1	1	inactive
15	TMEM63C	1	2.17	inactive
16	TMEM63C	1	1.71	inactive
17	TXNRD3	1	3.06	active
18	TXNRD3	1	2.07	inactive
19	TXNRD3	1	1.73	inactive
20	TXNRD3	1	2.71	inactive
21	TXNRD3	2	-0.89	inactive
22	TXNRD3	2	0.08	inactive
23	TXNRD3	2	-0.27	inactive
24	TXNRD3	2	-0.21	inactive
25	GJC1	1	-0.3	inactive
26	GJC1	1	0.69	inactive
27	GJC1	1	-0.16	inactive
28	GJC1	1	0.01	inactive
29	RITA1	1	0.13	inactive
30	RITA1	1	1.6	inactive
31	RITA1	1	1.39	inactive
32	RITA1	1	0.82	inactive
33	ZWINT	1	0.41	inactive
34	ZWINT	1	0.7	inactive
35	ZWINT	1	1.5	inactive
36	ZWINT	1	0.73	inactive
37	S100Z	1	0.12	inactive
38	S100Z	1	1.16	inactive
39	S100Z	1	-0.27	inactive
40	S100Z	1	0.14	inactive
41	PSMD2	1	-2.2	active
42	PSMD2	1	-2.26	active
43	PSMD2	1	-2.12	active
44	PSMD2	1	-2.14	active
45	CD46	1	-0.76	inactive
46	CD46	1	0.17	inactive
47	CD46	1	-0.99	inactive
48	CD46	1	-0.55	inactive
49	COX5A	1	2.02	inactive
50	COX5A	1	1.33	inactive
51	COX5A	1	0.04	inactive
52	COX5A	1	1.3	inactive
53	PPP1R1A	1	1.37	inactive
54	PPP1R1A	1	3.05	active
55	PPP1R1A	1	1.88	inactive
56	PPP1R1A	1	0.22	inactive
57	RDH14	1	-0.17	inactive
58	RDH14	1	0.19	inactive
59	RDH14	1	-0.94	inactive
60	RDH14	1	0.93	inactive
61	TECR	1	2.46	inactive
62	TECR	1	0.53	inactive
63	TECR	1	0.68	inactive
64	TECR	1	2.52	inactive
65	ELF5	1	-0.15	inactive
66	ELF5	1	0.41	inactive
67	ELF5	1	-0.13	inactive
68	ELF5	1	0.58	inactive
69	ASB5	1	-0.14	inactive
70	ASB5	1	0	inactive
71	ASB5	1	-1.36	inactive
72	ASB5	1	0.08	inactive
73	IRAG2	1	1.81	inactive
74	IRAG2	1	0.46	inactive
75	IRAG2	1	0.9	inactive
76	IRAG2	1	-0.1	inactive

Copied from above (8 entries):
no.	gene symbol	reagent no.	TNF reporter robust z-score	call
28	GJC1	1	0.01	inactive
29	RITA1	1	0.13	inactive
30	RITA1	1	1.6	inactive
31	RITA1	1	1.39	inactive
32	RITA1	1	0.82	inactive
33	ZWINT	1	0.41	inactive
34	ZWINT	1	0.7	inactive
35	ZWINT	1	1.5	inactive
